At least one peptide structure holds a part that was inferred or is arguable (an end, a ring closure or a residue). Some entries share one result that the patent states for a list of compounds. Residues, ends and D or L forms follow the SMILES beside them. *: point of attachment. Doxorubicin(3'-N) = COc1cccc2c1C(=O)c1c(O)c3c(c(O)c1C2=O)C[C@@](O)(C(=O)CO)C[C@@H]3O[C@H]1C[C@H](N*)[C@H](O)[C@H](C)O1
Tests used:
[1] = system: lysosome enzymes other than cathepsin B; assay: Degradation by lysosome enzymes other than cathepsin B; type: biochemical
HT29 cells [2] = type: cell-based, human; conditions: at 1 μM
Method: In addition, cytotoxicity was investigated using CCK-8 (cell counting kit-8). Specifically, 1×10^4 HT29 cells and 0.5×10^4 H9C2 cells were seeded onto a 96-well plate, respectively, and stabilized by culturing for 24 hours. A single administration group, drug administration groups and a control group were obtained by administering the anticancer agent (DOX) alone (0.01 to 100 μM) or together with the prodrug nanoparticles of Example 4 and Comparative Example 3 (0.01 to 100 μM), respectively, to each well and incubating at 37° C. for 48 hours. After the incubation was completed, a culture medium containing a 10% CCK-8 solution was added. After conducting reaction for 20 minutes, analysis was made with a microplate reader at a wavelength of 450 nm. After plotting cell survivability depending on concentration, IC50 (half-maximal inhibitory concentration) values were obtained for the single administration group, drug administration groups and control group using the GraphPad Prism 8 software (GraphPad Software, San Diego, CA, USA).

cathepsin B = biological target: T1, cathepsin B (Homo sapiens, UniProt P07858); assay: Cathepsin B-specific degradation of prodrug nanoparticles (RP-HPLC); type: biochemical; conditions: 100 μM nanoparticles
T1 construct: purchased R&D Systems (Minneapolis, MN, USA)

HT29 colon cancer cells = assay: Cellular uptake and intranuclear localization (CLSM); type: cell-based, human; conditions: 5 μM
Method: The cellular uptake and intranuclear localization of the prodrug nanoparticles (5 μM) were analyzed using HT29 colon cancer cells. In order to investigate the intracellular behavior and intracellular interaction of the prodrug nanoparticles, 2×10^5 HT29 cells were seeded onto a glass-bottomed confocal dish. After stabilizing the cells by culturing for 24 hours, they were treated with the prodrug nanoparticles of Examples 4 to 6 and Comparative Example 3 (5 μM), and drug administration groups 1, 2 and 3 (FRRL-DOX, FRRLG-DOX, FLRRG-DOX) and a control group (FRRG-DOX) were obtained by incubating at 37° C. for 0, 24 and 48 hours. […] Each group was imaged by CLSM to obtain a fluorescence image, and fluorescence intensity was quantified from the fluorescence image to investigate the distribution of the prodrug nanoparticles using the Image-Pro software (Media Cybernetics, Rockville, MD, USA).

HT29 cells [3] = assay: Degradation after cellular uptake (MALDI-TOF of cell filtrate); type: cell-based, human; conditions: 100 μM, 48 hours
Method: In order to further investigate whether the prodrug nanoparticles are degraded after cellular uptake, 1×10^6 HT29 cells were seeded onto a 100-mm cell culture dish and stabilized by culturing for 24 hours. After administering the prodrug nanoparticles of Examples 4 to 6 and Comparative Example 3 (100 μM) to the cells, drug administration groups 1, 2 and 3 (FRRL-DOX, FRRLG-DOX, FLRRG-DOX) and a control group (FRRG-DOX) were obtained by incubating at 37° C. for 48 hours. Each group was washed with PBS and dispersed in distilled water (H2O). The dispersion was filtered through a 0.45-μm syringe filter, and the recovered filtrate was subjected to mass analysis by MALDI-TOF.

H9C2 cells = assay: Cell-specific activity, DOX fluorescence distribution (CLSM); type: cell-based, rat; conditions: 5 μM, 48 hours
Method: (§1) Then, experiment was performed as follows to analyze specific activity for cells. First, 2×10^5 HT29 cells and 2×10^5 H9C2 cells were seeded onto a glass-bottomed confocal dish, respectively. Cathepsin B-inhibited cells (HT29-Inh) were prepared by pretreating HT29 cells with Z-Phe-Ala-FMK (20 μM) for 24 hours. After stabilizing the cells by culturing for 24 hours, and administering the anticancer agent (DOX) alone (5 μM) or together with the prodrug nanoparticles of Example 4 and Comparative Example 3 (5 μM), respectively, a single administration group, drug administration groups and a control group were obtained by incubating at 37° C. for 48 hours. […] Each group was imaged by CLSM to obtain a fluorescence image, and fluorescence intensity was quantified from the fluorescence image to investigate the distribution of the prodrug nanoparticles using the Image-Pro software (Media Cybernetics, Rockville, MD, USA).

[4] = system: Cathepsin B-inhibited cells (HT29-Inh); assay: as above; type: cell-based, human; conditions: 5 μM, 48 hours
Method: as §1

[5] = system: HT29 tumor-bearing BALB/c nu/nu mice; assay: Anticancer effect in animal model of cancer; conditions: after treatment

Compound	degradation ratio by lysosome enzymes other than cathepsin B [1]	efficacy of cell death for cancer cells (HT29 cells [2])	degradation by cathepsin B (peptide degradation ratio over time) (cathepsin B; MES buffer pH 5.5, 0-24 hours)	peak of the conjugate in RP-HPLC after reaction with cathepsin B (cathepsin B; MES buffer pH 5.5, 24 hours)	ratio of accumulation in the nucleus, times higher as compared to Comparative Example 3 (FRRG-DOX) (HT29 colon cancer cells; 48 h) [times]	anticancer agent (DOX) delivered into the nucleus (ratio of accumulation in the nucleus) (HT29 colon cancer cells; 48 h, fluorescence intensity nucleus vs cytoplasm) [%]	location of red fluorescence (DOX) in the cells (HT29 colon cancer cells; confocal images)	degradation of prodrug nanoparticles in the cancer cells (MALDI-TOF) (HT29 cells [3])	location of fluorescence of anticancer agent (DOX) (H9C2 cells)	ratio of accumulation in the nucleus (H9C2 cells) [%]	location of fluorescence of anticancer agent (DOX) ([4]; HT29-Inh cells (Z-Phe-Ala-FMK 20 μM pretreated))	ratio of accumulation in the nucleus ([4]; HT29-Inh cells) [%]	histopathological analysis of cancer tissue ([5]; H&E)	TUNEL assay of cancer tissue (green fluorescence) [5]
Example 6: conjugate of N-terminally acylated peptide Phe-Leu-Arg-Arg-Gly (SEQ ID NO: 3) and doxorubicin; self-assembled prodrug nanoparticles (FLRRG; N-terminal acyl; doxorubicin conjugate)	0-5%	–	–	–	–	–	–	–	–	–	–	–	–	–
COc1cccc2c1C(=O)c1c(O)c3c(c(O)c1C2=O)C[C@@](O)(C(=O)CO)C[C@@H]3O[C@H]1C[C@H](NC(=O)CNC(=O)[C@H](CCCNC(=N)N)NC(=O)[C@H](CCCNC(=N)N)NC(=O)[C@H](Cc2ccccc2)NC(C)=O)[C@H](O)[C@H](C)O1 [Comparative Example 3, reference compound] (Ac-FRRG-{Doxorubicin(3'-N)})	–	low efficacy of cell death	–	–	–	–	–	–	–	–	–	–	–	–
COc1cccc2c1C(=O)c1c(O)c3c(c(O)c1C2=O)C[C@@](O)(C(=O)CO)C[C@@H]3O[C@H]1C[C@H](NC(=O)[C@H](CC(C)C)NC(=O)[C@H](CCCNC(=N)N)NC(=O)[C@H](CCCNC(=N)N)NC(=O)[C@H](Cc2ccccc2)NC(C)=O)[C@H](O)[C@H](C)O1 [Example 4] (Ac-FRRL-{Doxorubicin(3'-N)})	0-5%	–	slower rate of degradation	not detected at all	1.25	63	in the nucleus	completely degraded	only in the cytoplasm	5	only in the cytoplasm	19	morphology of the cancer tissue completely destroyed	strong green fluorescence
